Some results were stated once for a whole list of compounds, not compound by compound.
Target: HCV NS3 protease (Hepatitis C virus genotype 1a, UniProt P27958)
Assay: HCV NS3 protease time-resolved fluorescence (TRF) assay
Assay type: biochemical

Protein sequences, listed by entry. Tags and fused reporters are not part of them. Residues count along the entry.
UniProt P27958, 1027-1657: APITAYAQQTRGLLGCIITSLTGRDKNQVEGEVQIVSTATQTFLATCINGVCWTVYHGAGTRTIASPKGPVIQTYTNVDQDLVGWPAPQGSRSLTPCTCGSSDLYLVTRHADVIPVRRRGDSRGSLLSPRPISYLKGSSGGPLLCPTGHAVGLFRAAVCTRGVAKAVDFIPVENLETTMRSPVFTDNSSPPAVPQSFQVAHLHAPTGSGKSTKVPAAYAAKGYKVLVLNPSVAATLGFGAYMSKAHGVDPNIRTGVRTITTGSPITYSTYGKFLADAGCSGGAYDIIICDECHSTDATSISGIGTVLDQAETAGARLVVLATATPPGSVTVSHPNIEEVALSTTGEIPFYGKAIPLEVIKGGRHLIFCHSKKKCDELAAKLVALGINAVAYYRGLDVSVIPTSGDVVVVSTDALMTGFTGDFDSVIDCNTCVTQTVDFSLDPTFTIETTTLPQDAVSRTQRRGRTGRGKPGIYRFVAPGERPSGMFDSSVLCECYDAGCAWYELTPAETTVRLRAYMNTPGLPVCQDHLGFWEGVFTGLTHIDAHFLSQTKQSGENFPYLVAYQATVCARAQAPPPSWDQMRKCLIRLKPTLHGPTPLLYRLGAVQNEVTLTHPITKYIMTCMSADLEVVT
UniProt P27958, 1658-1711: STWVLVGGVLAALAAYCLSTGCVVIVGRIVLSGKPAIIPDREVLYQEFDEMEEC

Structure (SMILES)	Ki
C=C[C@@H]1C[C@]1(NC(=O)[C@@H]1C[C@@H]2CN1C(=O)[C@H](C(C)C)NC(=O)NCCCCCc1cc3c(cc(-c4ccccc4)nc3cc1OC)O2)C(=O)NS(=O)(=O)C1CC1 [III-42, (2R,4S,7S)-N-((1R,2S)-1-{[(Cyclopropylsulfonyl)amino]carbonyl}-2-vinylcyclopropyl)-7-isopropyl-23-methoxy-6,9-dioxo-20-phenyl-3,4,6,7,8,9,10,11,12, 13,14,15-dodecahydro-2H-16,18-ethanediylidene-2,5-methanopyrido[3,4-r][1,5,8, 10]oxatriazacyclononadecine-4-carboxamide]	< 10 µM
C=C[C@@H]1C[C@]1(NC(=O)[C@@H]1C[C@@H]2CN1C(=O)[C@H](CCCNC(=O)OC(C)(C)C)NC(=O)OCCCCCc1ccc3nc(-c4ccccc4)cc(c3c1)O2)C(=O)O [III-43, (1R,2S)-1-{[((2R,4S,7S)-7-{3-[(tert-Butoxycarbonyl)amino]propyl}-6,9-dioxo-20-phenyl-3,4,6,7,8,9,12,13,14,15-decahydro-2H,11H-16,18-ethanediylidene-2,5-methanopyrido[4,3-k][1,10,3,6]dioxadiazacyclononadecin-4-yl)carbonyl]amino}-2-vinyl cyclopropanecarboxylic acid]	< 10 µM
C=C[C@@H]1C[C@]1(NC(=O)[C@@H]1C[C@@H]2CN1C(=O)[C@H](CCCNC(=O)OC(C)(C)C)NC(=O)OCCCCCc1ccc3nc(-c4ccccc4)cc(c3c1)O2)C(=O)NS(=O)(=O)C1CC1 [III-44, tert-Butyl 3-((2R,4S,7S)-4-{[((1R,2S)-1-{[(cyclopropylsulfonyl)amino]carbonyl}-2-vinylcyclopropyl)amino]carbo-nyl}-6,9-dioxo-20-phenyl-3,4,6,7,8,9,12,13,14,15-decahydro-2H,11H-16,18-ethanediylidene-2,5-methanopyrido[4,3-k][1,10,3,6]dioxadiazacyclononadecin-7-yl)propylcarbamate]	< 10 µM
C=C[C@@H]1C[C@]1(NC(=O)[C@@H]1C[C@@H]2CN1C(=O)[C@H](C(C)C)NC(=O)N(C)CCCCCc1cc3c(cc(-c4ccccc4)nc3cc1OC)O2)C(=O)NS(=O)(=O)C1CC1 [III-45, (2R,4S,7S)-N-((1R,2S)-1-{[(Cyclopropylsulfonyl)amino]carbonyl}-2-vinylcyclopropyl)-7-isopropyl-23-methoxy-10-methyl-6,9-dioxo-20-phenyl-3,4,6,7,8,9,10,11,12,13,14,15-dodecahydro-2H-16,18-ethanediylidene-2,5-methano pyrido[3,4-r][1,5,8,10]oxa triazacyclononadecine-4-carboxamide]	< 10 µM
C=C[C@@H]1C[C@]1(NC(=O)[C@@H]1C[C@@H]2CN1C(=O)[C@H](C(C)C)NC(=O)N(C)CCC/C=C/c1cc3c(cc(-c4ccccc4)nc3cc1OC)O2)C(=O)NS(=O)(=O)C1CC1 [III-46, (2R,4S,7S)-N-((1R,2S)-1-{[(Cyclopropylsulfonyl)amino]carbonyl}-2-vinylcyclopropyl)-7-isopropyl-23-methoxy-10-methyl-6,9-dioxo-20-phenyl-3,4,6,7,8,9, 10,11,12,13-decahydro-2H-16,18-ethanediylidene-2,5-methanopyrido[3,4-r][1,5,8,10]oxatriazacyclo nonadecine-4-carboxamide]	< 10 µM
C=C[C@@H]1C[C@]1(NC(=O)[C@@H]1C[C@@H]2CN1C(=O)[C@H](CCCC)NC(=O)NCCC/C=C/c1ccc3nc(-c4ccccc4)cc(c3c1)O2)C(=O)NS(=O)(=O)C1CC1 [III-47, (2R,4S,7S)-7-Butyl-N-((1R,2S)-1-{[(cyclopropylsulfonyl)amino]carbonyl}-2-vinylcyclopropyl)-6,9-dioxo-20-phenyl-3,4,6,7,8,9, 10,11,12,13-decahydro-2H-16,18-ethanediylidene-2,5-methanopyrido[3,4-r][1,5,8, 10]oxatriazacyclonona decine-4-carboxamide]	< 10 µM
C=C[C@@H]1C[C@]1(NC(=O)[C@@H]1C[C@@H]2CN1C(=O)[C@H](CCCC)NC(=O)NCCCCCc1ccc3nc(-c4ccccc4)cc(c3c1)O2)C(=O)NS(=O)(=O)C1CC1 [III-48, (2R,4S,7S)-7-Butyl-N-((1R,2S)-1-{[(cyclopropylsulfonyl)amino]carbonyl}-2-vinylcyclopropyl)-6,9-dioxo-20-phenyl-3,4,6,7,8,9,10,11, 12,13,14,15-dodecahydro-2H-16,18-ethanediylidene-2,5-methanopyrido[3,4-r][1,5,8,10]oxatriazacyclo nonadecine-4-carboxamide]	< 10 µM
C=C[C@@H]1C[C@]1(NC(=O)[C@@H]1C[C@@H]2CN1C(=O)[C@H](C(C)C)NC(=O)NC(C)(C)CC/C=C/c1cc3c(cc(-c4ccccc4)nc3cc1OC)O2)C(=O)NS(=O)(=O)C1CC1 [III-49, (2R,4S,7S)-N-((1R,2S)-1-{[(Cyclopropylsulfonyl)amino]carbonyl}-2-vinylcyclopropyl)-7-isopropyl-23-methoxy-11,11-dimethyl-6,9-dioxo-20-phenyl-3,4,6,7,8,9,10,11,12,13-decahydro-2H-16,18-ethanediylidene-2,5-methanopyrido[3,4-r][1,5,8,10]oxatriazacyclo nonadecine-4-carboxamide]	< 10 µM
C=C[C@@H]1C[C@]1(NC(=O)[C@@H]1C[C@@H]2CN1C(=O)[C@H](C(C)C)NC(=O)NC(C)(C)CCCCc1cc3c(cc(-c4ccccc4)nc3cc1OC)O2)C(=O)NS(=O)(=O)C1CC1 [III-50, (2R,4S,7S)-N-((1R,2S)-1-{[(Cyclopropylsulfonyl)amino]carbonyl}-2-vinylcyclopropyl)-7-isopropyl-23-methoxy-11,11-dimethyl-6,9-dioxo-20-phenyl-3,4,6,7,8,9,10,11,12,13,14,15-dodecahydro-2H-16,18-ethanediylidene-2,5-methano pyrido[3,4-r][1,5,8,10] oxatriazacyclononadecine-4-carboxamide]	< 10 µM
C=C[C@@H]1C[C@]1(NC(=O)[C@@H]1C[C@@H]2CN1C(=O)[C@H](C(C)(C)C)NC(=O)OCCCC=Cc1cc3c(cc(-c4ccccc4)nc3cc1OC)O2)C(=O)NS(=O)(=O)C1CC1 [III-51, (2R,4S,7S)-7-tert-Butyl-N-((1R,2S)-1-{[(cyclopropylsulfonyl)amino]carbonyl}-2-vinylcyclopropyl)-23-methoxy-6,9-dioxo-20-phenyl-3,4,6,7,8,9,12,13-octahydro-2H,11H-16,18-ethanediylidene-2,5-methano pyrido[4,3-k][1,10,3,6] dioxadiazacyclononadecine-4-carboxamide]	< 10 µM
C=C[C@@H]1C[C@]1(NC(=O)[C@@H]1C[C@@H]2CN1C(=O)[C@H](C(C)(C)C)NC(=O)OCCCCCc1cc3c(cc(-c4ccccc4)nc3cc1OC)O2)C(=O)NS(=O)(=O)C1CC1 [III-52, (2R,4S,7S)-7-tert-Butyl-N-((1R,2S)-1-{[(cyclopropylsulfonyl)amino]carbonyl}-2-vinylcyclopropyl)-23-methoxy-6,9-dioxo-20-phenyl-3,4,6,7,8,9,12,13, 14,15-decahydro-2H,11H-16,18-ethanediylidene-2,5-methanopyrido[4,3-k][1,10,3,6]dioxadiazacyclononade-cine-4-carboxamide]	< 10 µM
C=C[C@@H]1C[C@]1(NC(=O)[C@@H]1C[C@@H]2CN1C(=O)C(C1CCN(C(=O)OC(C)(C)C)CC1)NC(=O)OCCCCCc1ccc3nc(-c4ccccc4)cc(c3c1)O2)C(=O)O (stereo partly drawn) [III-53, (1R,2S)-1-[({(2R,4S)-7-[1-(tert-Butoxycarbonyl)piperidin-4-yl]-6,9-dioxo-20-phenyl-3,4,6,7,8,9,11,12,13,14-decahydro-2H,11H-16,18-ethanediylidene-2,5-methanopyrido[4,3-k][1,10,3,6]dioxadiazacyclononade-cin-4-yl}carbonyl)amino]-2-vinylcyclopropanecarboxy lic acid]	< 10 µM
C=C[C@@H]1C[C@]1(NC(=O)[C@@H]1C[C@@H]2CN1C(=O)[C@H](C1CCCCC1)NC(=O)OCC(C)(C)C/C=C/c1cc3c(cc(-c4ccccc4)nc3cc1OC)O2)C(=O)NS(=O)(=O)C1CC1 [III-54, (2R,4S,7S)-7-Cyclohexyl-N-((1R,2S)-1-{[(cyclopropylsulfonyl)amino]carbonyl}-2-vinylcyclopropyl)-23-methoxy-12,12-dimethyl-6,9-dioxo-20-phenyl-3,4,6,7,8,9,12,13-octahydro-2H,11H-16,18-ethanediylidene-2,5-methanopyrido[4,3-k][1,10,3,6]dioxadiazacyclononadecine-4-carboxamide]	< 10 µM
C=C[C@@H]1C[C@]1(NC(=O)[C@@H]1C[C@@H]2CN1C(=O)C(C1CCNCC1)NC(=O)OCCCCCc1ccc3nc(-c4ccccc4)cc(c3c1)O2)C(=O)O (stereo partly drawn) [III-55, (1R,2S)-1-({[(2R,4S)-6,9-Dioxo-20-phenyl-7-piperidin-4-yl-3,4,6,7,8,9,12,13,14,15-decahydro-2H,11H-16,18-ethanediylidene-2,5-methanopyrido[4,3-k][1,10,3,6]dioxadiazacyclononadecin-4-yl]carbonyl}amino)-2-vinylcyclopropanecarboxylic acid]	< 10 µM
C=C[C@@H]1C[C@]1(NC(=O)[C@@H]1C[C@@H]2CN1C(=O)[C@H](CCCN)NC(=O)OCCCCCc1ccc3nc(-c4ccccc4)cc(c3c1)O2)C(=O)NS(=O)(=O)C1CC1 [III-56, (2R,4S,7S)-7-(3-Aminopropyl)-N-((1R,2S)-1-{[(cyclopropylsulfonyl)amino]carbonyl}-2-vinylcyclopropyl)-6,9-dioxo-20-phenyl-3,4,6,7,8,9,12,13,14,15-decahydro-2H,11H-16,18-ethanediylidene-2,5-methanopyrido[4,3-k][1,10,3,6]dioxadiazacyclononadecine-4-carboxamide]	< 10 µM
C=C[C@@H]1C[C@]1(NC(=O)[C@@H]1C[C@@H]2CN1C(=O)[C@H](CCCC)NC(=O)OCCC/C=C/c1ccc3nc(-c4ccccc4)cc(c3c1)O2)C(=O)NS(=O)(=O)C1CC1 [III-57, (2R,4S,7S)-7-Butyl-N-((1R,2S)-1-{[(cyclopropylsulfonyl)amino]carbonyl}-2-vinylcyclopropyl)-6,9-dioxo-20-phenyl-3,4,6,7,8,9,12,13-octahydro-2H,11H-16,18-etheno-2,5-methanopyrido[4,3-k][1,10,3,6]dioxadiazacyclononadecine-4-carboxamide]	< 10 µM

Reference: patent US7879797B2, “HCV NS3 protease inhibitors” (Merck Sharp & Dohme Corp., priority 2005, dated 2011)
